Measurements: patent US8686002B2, “Heterocyclic compounds and their use as binding partners for 5-HT5 receptors” (AbbVie Deutschland GmbH & Co. KG, priority 2005, dated 2014)

Sequences of proteins named here, by UniProt entry; tags and fusion partners are left off.
UniProt P47898, whole entry: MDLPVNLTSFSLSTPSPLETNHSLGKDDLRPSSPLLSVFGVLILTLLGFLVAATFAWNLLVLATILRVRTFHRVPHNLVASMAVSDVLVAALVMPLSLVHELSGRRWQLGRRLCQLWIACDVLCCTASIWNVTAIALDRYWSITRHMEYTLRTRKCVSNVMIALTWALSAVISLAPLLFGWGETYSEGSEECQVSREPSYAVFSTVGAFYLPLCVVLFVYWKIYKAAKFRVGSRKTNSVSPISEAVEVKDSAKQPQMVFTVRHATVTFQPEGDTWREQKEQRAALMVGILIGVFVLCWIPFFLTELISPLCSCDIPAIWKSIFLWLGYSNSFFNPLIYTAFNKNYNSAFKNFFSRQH

Biological target: 5-HT5A (Homo sapiens, UniProt P47898)
Experiment: Affinity of selected compounds for 5-HT5A (Ki)
Type: binding
Procedure: In both assays, different concentrations of the test substances are used and the Ki and IC50 values are determined.

For COc1cccc(Cl)c1Cc1cc2cnccc2nc1N [Example 57, 3-(2-Chloro-6-methoxybenzyl)-1,6-naphthyridin-2-amine], the Ki was < 300 nM.
